The record followed here is PMC5680235, “Identification of a peptide recognizing cerebrovascular changes in mouse models of Alzheimer’s disease” (Nature Communications, 2017).

These are yes or no findings as the source states them, for the method shown.

The target in this assay is T1, full-length recombinant human CTGF/CCN2 (human, UniProt P29279 27-349).
T1 construct: connective tissue growth factor (CTGF/CCN2), human, full-length recombinant; also called connective tissue growth factor; recombinant CTGF; source: bought: R&D systems (cat#9190-CC)
T1 sequence (looked up): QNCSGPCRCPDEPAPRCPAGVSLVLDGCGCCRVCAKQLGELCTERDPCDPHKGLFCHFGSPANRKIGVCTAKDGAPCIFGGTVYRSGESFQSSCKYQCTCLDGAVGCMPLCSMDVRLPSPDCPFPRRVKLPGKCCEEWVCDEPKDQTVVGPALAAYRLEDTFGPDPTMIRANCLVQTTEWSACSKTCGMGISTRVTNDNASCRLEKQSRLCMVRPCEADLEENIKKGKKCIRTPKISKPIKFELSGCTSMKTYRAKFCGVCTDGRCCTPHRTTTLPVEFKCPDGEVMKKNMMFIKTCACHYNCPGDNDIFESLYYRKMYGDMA
The assay is described as follows: ELISA; plate wells coated with recombinant human CTGF; FAM-peptide in 0.05% Casein/PBST overnight at 4 °C, two peptide concentrations; alone or with excess unlabeled DAG (0.6 mM); detected with anti-FITC HRP antibody, absorbance at 450 nm; both purified.

On to CRKQGEAKC (5(6)-carboxyfluorescein (FAM) at the N-terminus) [FAM-labeled control peptide (…)], for which the binding result is given as “no binding”.
